Experimental data published in patent publication US20240115881A1, “METHODS AND SYSTEMS FOR DETERMINING THE DISTRIBUTION OF RADIATION DOSE AND RESPONSE” (priority 2022, published 2024).
Some of these results come from one statement about several compounds together.

Tested on: Chinese hamster V79 lung fibroblasts
Assay: clonogenic survival assay (colony formation) after single-agent treatment
Type: cell-based
Details: extracellular concentration
Description: The surviving fraction SF of cells exposed to the agent was assessed with a clonogenic survival assay and plotted as a function of several different variables including extracellular concentration, <I>net, absorbed dose (Gy), and mean cellular activity (mBq/cell). The resulting survival curves were of a 1- or 2-component exponential form. Analogous to the cellular activity and absorbed dose required to achieve 37% survival, a37 and D37, the net mean lethal fluorescence intensity of the drug required to achieve 37% survival, <I>net37 , can be defined similarly and obtained from plots of SF versus <I>net.
To evaluate ^210Po cytotoxicity, the surviving fraction was plotted as a function of EuTc-citrate net MFI, mean cellular uptake of ^210Po, and mean absorbed dose to the nucleus (FIG. 4A). […] For both drugs, clonogenic survival and cellular drug uptake (as determined by net MFI) are related via two component exponential functions SF=b exp(−A/A1)+(1-b) exp(−A/A2). […]
^210PoCl4 in 2 mol/L HCI was obtained at 370 MBq/mL from Eckert&Ziegler Isotope Products (Valencia, CA, catalog no. 6310). ^210Po-citrate was prepared as follows. […] The cells were resuspended in a 5 mL of MEMB, passed 5× through a needle, and counted with a Beckman Coulter Model Z2 (Brea, CA). […] Aliquots of about 5×10^5 cells were counted in triplicate for ^210Po activity and the cpm ranged from 10^3-10^5. […]

| SMILES | concentration at which uptake slope, survival slope and shape parameter begin to change (transition to second component) [µmol/L] |
| --- | --- |
| COc1cccc2c1C(=O)c1c(O)c3c(c(O)c1C2=O)C[C@@](O)(C(C)=O)C[C@@H]3O[C@H]1C[C@H](N)[C@H](O)[C@H](C)O1 [daunomycin] | 1 to 2 |
| COc1cccc2c1C(=O)c1c(O)c3c(c(O)c1C2=O)C[C@@](O)(C(=O)CO)C[C@@H]3O[C@H]1C[C@H](N)[C@H](O)[C@H](C)O1 [doxorubicin] | 1 to 2 |
